Results are given in words; binding and its absence hold for the method and conditions named. Binding seen in cells or lysates may run through a third protein. Some entries that bind do so weakly or less than the wild type.
How the values were obtained:
p120catenin (human) [1] = molecular target: T1, p120catenin (human) (UniProt O60716); assay: co-immunoprecipitation from SW480 lysate immunodepleted with anti-pan-cadherin mAb
T1 sequence (looked up): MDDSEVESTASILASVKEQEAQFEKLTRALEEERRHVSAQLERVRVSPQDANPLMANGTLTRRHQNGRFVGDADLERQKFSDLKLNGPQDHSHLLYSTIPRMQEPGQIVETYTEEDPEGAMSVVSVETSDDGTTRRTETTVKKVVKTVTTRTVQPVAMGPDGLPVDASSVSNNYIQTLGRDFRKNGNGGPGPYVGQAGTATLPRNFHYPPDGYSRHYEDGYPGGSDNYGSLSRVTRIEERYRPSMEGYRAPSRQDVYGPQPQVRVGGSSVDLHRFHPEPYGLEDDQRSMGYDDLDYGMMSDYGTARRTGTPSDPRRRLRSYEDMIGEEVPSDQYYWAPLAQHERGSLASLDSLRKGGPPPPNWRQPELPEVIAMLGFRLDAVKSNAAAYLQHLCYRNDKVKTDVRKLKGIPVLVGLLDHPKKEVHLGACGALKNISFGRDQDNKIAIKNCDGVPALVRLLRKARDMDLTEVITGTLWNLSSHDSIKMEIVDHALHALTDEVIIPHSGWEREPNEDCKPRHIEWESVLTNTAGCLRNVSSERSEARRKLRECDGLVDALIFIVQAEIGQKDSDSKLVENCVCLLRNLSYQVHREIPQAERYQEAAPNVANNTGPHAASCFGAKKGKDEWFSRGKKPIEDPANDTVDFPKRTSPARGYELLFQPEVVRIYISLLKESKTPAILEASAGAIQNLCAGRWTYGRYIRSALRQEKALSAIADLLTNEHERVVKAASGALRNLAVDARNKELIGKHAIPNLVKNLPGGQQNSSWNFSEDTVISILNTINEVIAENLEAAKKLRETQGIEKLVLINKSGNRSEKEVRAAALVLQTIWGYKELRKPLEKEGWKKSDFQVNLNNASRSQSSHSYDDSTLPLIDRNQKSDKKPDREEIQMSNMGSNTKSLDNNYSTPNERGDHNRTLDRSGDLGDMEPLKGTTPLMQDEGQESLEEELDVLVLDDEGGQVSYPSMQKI

Sequences of proteins named here, by UniProt entry; tags and fusion partners are left off. A change or cut given only in a name is not applied to a line headed by its entry.
UniProt O14495: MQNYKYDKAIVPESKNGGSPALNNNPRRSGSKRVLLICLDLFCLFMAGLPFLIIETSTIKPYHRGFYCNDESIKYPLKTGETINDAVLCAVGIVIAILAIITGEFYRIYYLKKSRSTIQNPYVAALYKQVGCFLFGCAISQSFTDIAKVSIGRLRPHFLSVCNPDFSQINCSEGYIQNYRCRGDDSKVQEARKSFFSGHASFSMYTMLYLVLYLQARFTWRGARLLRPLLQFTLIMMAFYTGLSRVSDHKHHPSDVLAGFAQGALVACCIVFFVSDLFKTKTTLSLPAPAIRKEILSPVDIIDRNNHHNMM

p120catenin (human) [2] = molecular target: T1, p120catenin (human); assay: anti-HA co-immunoprecipitation from infected endothelial cells, anti-p120 catenin blot
p120catenin (human) [3] = molecular target: T1, p120catenin (human); assay: co-immunoprecipitation and western blot, HUVECs and SW480 cells
p120catenin (human) [4] = molecular target: T1, p120catenin (human); assay: reciprocal co-immunoprecipitation from E-cadherin deficient SW480 cells stably expressing WT-PAP2b
p120catenin (human) [5] = molecular target: T1, p120catenin (human); assay: reciprocal co-immunoprecipitation from HUVECs infected with full length PAP2b (WT), western blot
p120catenin (human) [6] = molecular target: T1, p120catenin (human); assay: co-immunoprecipitation and far-western, endothelial cells

- binding (p120catenin (human) [1]): binds
- binding (p120catenin (human) [2]): binds
- binding (p120catenin (human) [3]): binds
- binding (p120catenin (human) [4]): binds
- binding (p120catenin (human) [5]): binds
- binding (p120catenin (human) [6]): binds
Substance: wild-type VCIP/PAP2b, HA-tagged, expressed from pLNCX2-VCIP-RGD (from UniProt O14495 1-311)
